From the supplement of paper PMC10849652
The list shows a part of the results.

By UniProt entry, the sequences of proteins in these tests, tags left out. Where a name states a change or a piece, a line headed by the entry shows the natural chain unless it says otherwise.
UniProt Q96AE4: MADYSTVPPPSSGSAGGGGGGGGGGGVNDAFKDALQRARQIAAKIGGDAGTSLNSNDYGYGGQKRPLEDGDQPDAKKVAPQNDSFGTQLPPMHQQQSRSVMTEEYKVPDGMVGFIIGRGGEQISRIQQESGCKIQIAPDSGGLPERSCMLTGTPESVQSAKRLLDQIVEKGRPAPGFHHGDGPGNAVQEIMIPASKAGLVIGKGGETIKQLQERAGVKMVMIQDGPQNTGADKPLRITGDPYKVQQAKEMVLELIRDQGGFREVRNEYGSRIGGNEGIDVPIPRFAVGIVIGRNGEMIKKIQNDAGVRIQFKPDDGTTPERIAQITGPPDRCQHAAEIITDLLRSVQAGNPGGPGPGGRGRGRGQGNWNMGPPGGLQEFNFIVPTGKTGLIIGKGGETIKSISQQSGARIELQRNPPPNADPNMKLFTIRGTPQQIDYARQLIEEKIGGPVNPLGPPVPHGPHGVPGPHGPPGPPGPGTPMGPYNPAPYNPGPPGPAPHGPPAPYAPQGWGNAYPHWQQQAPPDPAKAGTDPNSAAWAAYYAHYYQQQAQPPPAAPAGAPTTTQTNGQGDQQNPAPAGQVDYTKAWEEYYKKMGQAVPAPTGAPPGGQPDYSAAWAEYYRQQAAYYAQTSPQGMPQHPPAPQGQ
UniProt Q9H3K2: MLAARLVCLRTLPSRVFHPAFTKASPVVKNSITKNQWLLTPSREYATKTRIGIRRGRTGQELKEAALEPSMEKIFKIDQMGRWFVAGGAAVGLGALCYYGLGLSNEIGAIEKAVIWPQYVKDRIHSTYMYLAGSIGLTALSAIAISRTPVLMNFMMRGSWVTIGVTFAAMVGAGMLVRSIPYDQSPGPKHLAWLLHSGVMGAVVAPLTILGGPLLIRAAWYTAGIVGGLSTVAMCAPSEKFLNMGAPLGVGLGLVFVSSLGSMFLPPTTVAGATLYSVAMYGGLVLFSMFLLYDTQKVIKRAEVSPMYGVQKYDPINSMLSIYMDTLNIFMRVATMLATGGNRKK
UniProt O15117, whole entry, looked up: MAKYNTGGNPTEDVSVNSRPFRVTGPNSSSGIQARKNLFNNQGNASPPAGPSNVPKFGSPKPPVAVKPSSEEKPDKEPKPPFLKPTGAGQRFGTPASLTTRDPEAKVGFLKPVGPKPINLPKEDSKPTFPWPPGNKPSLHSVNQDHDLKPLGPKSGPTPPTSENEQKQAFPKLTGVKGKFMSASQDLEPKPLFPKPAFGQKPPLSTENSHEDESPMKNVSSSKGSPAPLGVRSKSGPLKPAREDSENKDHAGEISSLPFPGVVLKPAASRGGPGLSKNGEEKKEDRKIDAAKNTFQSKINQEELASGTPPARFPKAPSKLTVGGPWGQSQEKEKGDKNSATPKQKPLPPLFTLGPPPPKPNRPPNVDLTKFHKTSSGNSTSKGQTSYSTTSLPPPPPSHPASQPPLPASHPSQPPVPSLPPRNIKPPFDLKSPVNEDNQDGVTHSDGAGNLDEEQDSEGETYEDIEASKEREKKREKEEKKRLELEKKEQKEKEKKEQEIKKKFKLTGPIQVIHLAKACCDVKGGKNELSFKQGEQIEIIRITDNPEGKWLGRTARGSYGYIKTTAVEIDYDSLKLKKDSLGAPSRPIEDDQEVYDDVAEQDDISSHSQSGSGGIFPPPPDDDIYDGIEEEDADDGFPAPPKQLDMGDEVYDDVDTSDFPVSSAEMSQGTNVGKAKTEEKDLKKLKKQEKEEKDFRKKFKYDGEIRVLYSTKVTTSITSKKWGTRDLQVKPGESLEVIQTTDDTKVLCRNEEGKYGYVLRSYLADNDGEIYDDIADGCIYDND
UniProt Q9UPW0: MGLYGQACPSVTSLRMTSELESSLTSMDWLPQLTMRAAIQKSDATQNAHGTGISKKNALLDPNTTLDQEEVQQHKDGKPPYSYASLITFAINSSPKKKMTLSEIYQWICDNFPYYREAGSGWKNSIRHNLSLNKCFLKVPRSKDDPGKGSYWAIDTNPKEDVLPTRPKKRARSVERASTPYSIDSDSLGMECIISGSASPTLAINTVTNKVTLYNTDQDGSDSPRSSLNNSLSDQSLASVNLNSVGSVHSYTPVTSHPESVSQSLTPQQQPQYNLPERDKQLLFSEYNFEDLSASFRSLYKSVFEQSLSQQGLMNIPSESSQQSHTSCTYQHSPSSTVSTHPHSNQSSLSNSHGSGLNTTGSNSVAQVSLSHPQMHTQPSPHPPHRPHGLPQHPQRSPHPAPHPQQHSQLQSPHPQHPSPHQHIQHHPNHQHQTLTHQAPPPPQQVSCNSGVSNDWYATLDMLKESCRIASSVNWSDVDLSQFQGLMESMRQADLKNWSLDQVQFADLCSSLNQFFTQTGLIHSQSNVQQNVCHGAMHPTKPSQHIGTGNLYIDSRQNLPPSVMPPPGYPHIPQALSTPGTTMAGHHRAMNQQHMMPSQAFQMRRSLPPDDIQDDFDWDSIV
UniProt P54803: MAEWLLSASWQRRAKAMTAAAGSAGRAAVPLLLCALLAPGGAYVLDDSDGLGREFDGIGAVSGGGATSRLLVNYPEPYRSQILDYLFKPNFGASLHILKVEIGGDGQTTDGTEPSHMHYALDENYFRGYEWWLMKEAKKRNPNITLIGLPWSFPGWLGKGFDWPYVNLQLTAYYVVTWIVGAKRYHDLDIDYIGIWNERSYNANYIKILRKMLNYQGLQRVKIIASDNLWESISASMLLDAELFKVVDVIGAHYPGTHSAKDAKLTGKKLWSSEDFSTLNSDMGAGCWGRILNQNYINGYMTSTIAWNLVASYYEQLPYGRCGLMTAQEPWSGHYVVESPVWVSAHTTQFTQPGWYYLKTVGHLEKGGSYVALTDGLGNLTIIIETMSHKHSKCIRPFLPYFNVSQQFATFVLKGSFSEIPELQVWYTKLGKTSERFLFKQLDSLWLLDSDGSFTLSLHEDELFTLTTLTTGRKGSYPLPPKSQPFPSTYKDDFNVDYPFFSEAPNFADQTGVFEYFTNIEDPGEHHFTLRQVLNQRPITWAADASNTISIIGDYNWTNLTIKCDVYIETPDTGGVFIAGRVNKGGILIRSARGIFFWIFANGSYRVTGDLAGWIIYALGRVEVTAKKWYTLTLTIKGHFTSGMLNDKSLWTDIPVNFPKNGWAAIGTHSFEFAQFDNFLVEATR
UniProt Q8NCW6: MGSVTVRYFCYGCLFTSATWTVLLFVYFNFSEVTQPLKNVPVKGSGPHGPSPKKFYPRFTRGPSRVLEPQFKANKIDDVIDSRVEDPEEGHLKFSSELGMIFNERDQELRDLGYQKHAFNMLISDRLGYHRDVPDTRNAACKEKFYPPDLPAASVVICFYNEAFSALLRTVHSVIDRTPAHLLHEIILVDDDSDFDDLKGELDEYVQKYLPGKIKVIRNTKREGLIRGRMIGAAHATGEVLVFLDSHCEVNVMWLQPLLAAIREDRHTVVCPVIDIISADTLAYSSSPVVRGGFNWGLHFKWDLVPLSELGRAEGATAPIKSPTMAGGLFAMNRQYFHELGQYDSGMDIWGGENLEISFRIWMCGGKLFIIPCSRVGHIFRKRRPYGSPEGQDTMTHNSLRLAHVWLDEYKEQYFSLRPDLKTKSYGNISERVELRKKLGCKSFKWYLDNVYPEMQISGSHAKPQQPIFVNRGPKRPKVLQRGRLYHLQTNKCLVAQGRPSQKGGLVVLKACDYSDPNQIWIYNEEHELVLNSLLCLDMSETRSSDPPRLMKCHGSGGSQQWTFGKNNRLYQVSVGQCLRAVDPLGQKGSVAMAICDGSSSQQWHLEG
UniProt Q96I24: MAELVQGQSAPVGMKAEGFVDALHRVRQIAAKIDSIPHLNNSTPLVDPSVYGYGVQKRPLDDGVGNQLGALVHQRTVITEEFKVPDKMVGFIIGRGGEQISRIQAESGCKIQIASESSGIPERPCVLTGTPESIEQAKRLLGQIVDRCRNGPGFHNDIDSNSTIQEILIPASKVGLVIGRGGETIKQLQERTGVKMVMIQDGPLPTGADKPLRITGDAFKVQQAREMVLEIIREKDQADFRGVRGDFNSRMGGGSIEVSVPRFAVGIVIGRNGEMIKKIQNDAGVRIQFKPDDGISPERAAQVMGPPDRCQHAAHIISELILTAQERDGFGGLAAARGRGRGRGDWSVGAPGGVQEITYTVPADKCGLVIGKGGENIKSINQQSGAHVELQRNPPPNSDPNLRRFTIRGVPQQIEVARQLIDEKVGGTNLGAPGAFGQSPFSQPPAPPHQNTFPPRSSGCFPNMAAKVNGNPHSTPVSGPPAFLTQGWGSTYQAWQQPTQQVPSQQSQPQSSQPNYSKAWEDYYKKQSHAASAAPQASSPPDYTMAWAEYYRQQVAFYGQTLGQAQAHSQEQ
UniProt Q9BWH2: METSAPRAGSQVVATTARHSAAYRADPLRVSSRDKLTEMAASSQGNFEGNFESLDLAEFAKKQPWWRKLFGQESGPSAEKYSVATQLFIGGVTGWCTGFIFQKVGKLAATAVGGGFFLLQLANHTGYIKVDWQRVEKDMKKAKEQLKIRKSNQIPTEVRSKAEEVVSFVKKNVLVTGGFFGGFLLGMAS
UniProt Q8N9F7: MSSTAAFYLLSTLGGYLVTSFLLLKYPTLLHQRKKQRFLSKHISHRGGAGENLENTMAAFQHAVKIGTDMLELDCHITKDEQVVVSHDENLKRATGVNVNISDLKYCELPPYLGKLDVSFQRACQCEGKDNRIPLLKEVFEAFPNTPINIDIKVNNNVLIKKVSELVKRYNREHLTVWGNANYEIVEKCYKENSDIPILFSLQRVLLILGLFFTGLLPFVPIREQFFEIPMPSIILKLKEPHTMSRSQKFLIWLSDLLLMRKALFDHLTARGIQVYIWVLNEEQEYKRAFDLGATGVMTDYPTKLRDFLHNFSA
UniProt Q10472: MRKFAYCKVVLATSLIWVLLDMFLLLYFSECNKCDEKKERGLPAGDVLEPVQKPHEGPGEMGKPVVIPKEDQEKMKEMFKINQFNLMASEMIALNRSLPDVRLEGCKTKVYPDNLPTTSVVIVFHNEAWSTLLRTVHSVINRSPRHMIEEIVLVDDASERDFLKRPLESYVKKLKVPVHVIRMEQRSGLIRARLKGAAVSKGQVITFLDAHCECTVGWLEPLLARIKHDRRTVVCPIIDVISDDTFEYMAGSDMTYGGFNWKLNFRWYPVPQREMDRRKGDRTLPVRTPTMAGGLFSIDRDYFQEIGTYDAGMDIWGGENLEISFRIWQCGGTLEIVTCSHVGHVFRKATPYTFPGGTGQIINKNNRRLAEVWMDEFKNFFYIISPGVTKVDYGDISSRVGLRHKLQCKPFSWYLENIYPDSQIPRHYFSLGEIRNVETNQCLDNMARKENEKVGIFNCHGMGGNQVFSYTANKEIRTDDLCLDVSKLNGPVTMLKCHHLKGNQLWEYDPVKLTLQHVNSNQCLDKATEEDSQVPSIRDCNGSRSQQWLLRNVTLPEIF
UniProt P60520, whole entry, looked up: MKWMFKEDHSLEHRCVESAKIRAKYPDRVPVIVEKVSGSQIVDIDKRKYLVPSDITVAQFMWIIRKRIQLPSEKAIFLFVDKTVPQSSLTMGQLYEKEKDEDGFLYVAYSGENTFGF
UniProt P0CL80: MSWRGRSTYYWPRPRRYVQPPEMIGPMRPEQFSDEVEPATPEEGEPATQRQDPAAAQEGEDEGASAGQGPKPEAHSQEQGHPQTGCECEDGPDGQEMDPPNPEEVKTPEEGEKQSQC
UniProt O14893: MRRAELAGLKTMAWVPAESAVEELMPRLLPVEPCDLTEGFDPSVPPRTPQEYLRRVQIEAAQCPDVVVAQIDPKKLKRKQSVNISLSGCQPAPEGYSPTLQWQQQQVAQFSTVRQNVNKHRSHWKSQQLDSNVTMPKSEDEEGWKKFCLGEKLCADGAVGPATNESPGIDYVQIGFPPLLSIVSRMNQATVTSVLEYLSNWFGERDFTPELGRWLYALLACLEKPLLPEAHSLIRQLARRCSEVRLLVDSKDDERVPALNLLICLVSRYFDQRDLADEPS
UniProt Q9UJ14: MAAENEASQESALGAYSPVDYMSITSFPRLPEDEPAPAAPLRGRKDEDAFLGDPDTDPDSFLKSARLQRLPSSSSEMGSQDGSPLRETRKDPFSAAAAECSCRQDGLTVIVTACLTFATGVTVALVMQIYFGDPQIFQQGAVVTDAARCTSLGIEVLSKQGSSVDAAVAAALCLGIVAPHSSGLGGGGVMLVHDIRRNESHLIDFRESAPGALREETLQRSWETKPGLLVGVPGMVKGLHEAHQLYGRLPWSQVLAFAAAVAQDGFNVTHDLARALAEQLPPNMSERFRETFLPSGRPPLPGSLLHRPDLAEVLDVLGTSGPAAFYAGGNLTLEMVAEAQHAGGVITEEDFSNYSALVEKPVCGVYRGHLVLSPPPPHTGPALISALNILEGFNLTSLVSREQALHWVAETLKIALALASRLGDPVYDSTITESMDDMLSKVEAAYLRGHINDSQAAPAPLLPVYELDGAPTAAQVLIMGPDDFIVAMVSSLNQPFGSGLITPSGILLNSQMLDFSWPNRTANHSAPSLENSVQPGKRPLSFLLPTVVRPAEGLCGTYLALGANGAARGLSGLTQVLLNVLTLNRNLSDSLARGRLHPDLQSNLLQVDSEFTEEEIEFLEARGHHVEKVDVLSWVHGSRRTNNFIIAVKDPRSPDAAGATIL

Key:
Assay in all cases: log2 fold change, soluble protein after heating vs DMSO (PISA); higher = thermal stabilisation; K562 cells, 10 uM, 30 min; active = over 0.2 and 3.5 SD of the protein, either way, in both replicates (recomputed)
[1] = compound: CC[C@@H]1C(=O)N(C)c2cnc(Nc3ccc(C(=O)NC4CCN(C)CC4)cc3OC)nc2N1C1CCCC1
Summary of the method: (§1)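 Thermal stability values are relative to control samples and come from duplicates. They are expressed as log2 fold changes. For measurement, K562 cells (2×10^6 cells/mL) received 10 μM compound for 30 min, and aliquots were heated for 3 min over 48°C-58°C, pooled, and extracted at 4°C in PBS with 0.5% NP-40. Soluble protein, the supernatant after 21,000xg for 90 min, was quantified by TMTpro 16plex LC-MS/MS with equalised channel sums.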

[2] = compound: CC[C@@H]1C(=O)N(C)c2cnc(Nc3ccc(C(=O)N[C@H]4CC[C@H](N5CCN(CC6CC6)CC5)CC4)cc3OC)nc2N1C(C)C [volasertib]
Summary of the method: as §1

[3] = compound: CC[C@H](C)N1C=C(C2=C(C=C(C=C21)C3=CN=C(C=C3)N4CCNCC4)C(=O)NCC5=C(C=C(NC5=O)C)C)C
Summary of the method: as §1

[4] = compound: CC[C@H](C)[C@@H](C(=O)N[C@@H]([C@@H](C)O)C(=O)N[C@@H](CC(C)C)C(=O)[C@]1(CO1)C)NC(=O)[C@H]([C@@H](C)CC)N(C)C(=O)C [epoxomicin]
Summary of the method: as §1

[5] = compound: CCn1c(C(=O)N(C2CC2)C2CC2)cc2c3c(ncn3C)c(Nc3cc(C)n(C)n3)nc21
Summary of the method: as §1

[6] = compound: CCn1cc(-c2ccnc3[nH]c(-c4cccc(CN(C)C)c4)cc23)c(-c2ccc(NC(=O)N(C)C)cc2)n1
Summary of the method: as §1

[7] = compound: CN(C)CC(=O)Nc1ccc2[nH]c(=O)c3ccccc3c2c1
Summary of the method: as §1

[8] = compound: CN(CCOC1=CC=C(C=C1)C[C@H]2C(=O)NC(=O)S2)C3=CC=CC=N3 (racemic) [rosiglitazone]
Summary of the method: as §1

[9] = compound: CN1C2=C(C3=C1C(=O)N(N=C3)CC4=CC(=CC=C4)N)SC(=C2)S(=O)C
Summary of the method: as §1

[10] = compound: CN1CCC(CNc2ccc3ncc(-c4cccc(OC(F)(F)F)c4)n3n2)CC1
Summary of the method: as §1

Target | log2 fold change [1] | log2 fold change [2] | log2 fold change [3] | log2 fold change [4] | log2 fold change [5] | log2 fold change [6] | log2 fold change [7] | log2 fold change [8] | log2 fold change [9] | log2 fold change [10]
FUBP1 (UniProt Q96AE4) | inactive: -0.013 | inactive: 0.092 | inactive: 0.013 | inactive: 0.061 | inactive: -0.021 | inactive: 0.007 | inactive: 0.101 | inactive: 0.017 | inactive: -0.039 | inactive: 0.203
GEMIN4 (UniProt P57678) | inactive: 0.206 | inactive: -0.898 | inactive: -0.028 | inactive: -0.223 | inactive: -0.097 | inactive: 0.19 | inactive: 0.059 | inactive: -0.235 | inactive: 0.462 | inactive: -0.368
FTSJ1 (UniProt Q9UET6) | inactive: -0.016 | inactive: 0.012 | inactive: 0.023 | inactive: -0.007 | inactive: -0.067 | inactive: -0.004 | inactive: -0.012 | inactive: 0.047 | inactive: -0.077 | inactive: -0.082
GHITM (UniProt Q9H3K2) | inactive: 0.025 | inactive: 0.047 | inactive: -0.021 | inactive: -0.029 | inactive: 0.036 | inactive: -0.004 | inactive: 0.029 | inactive: -0.019 | inactive: 0.01 | inactive: -0.047
FUS (UniProt P35637) | inactive: 0.16 | inactive: 0.223 | inactive: -0.037 | inactive: -0.097 | inactive: -0.006 | inactive: 0.119 | inactive: -0.145 | inactive: -0.092 | inactive: 0.071 | inactive: 0.134
GCLM (UniProt P48507) | inactive: -0.183 | active: -0.41 | inactive: 0.058 | inactive: 0.03 |  | inactive: -0.046 | inactive: 0.042 |  | inactive: 0.03 | inactive: -0.112
GEMIN6 (UniProt Q8WXD5) | inactive: 0.109 | inactive: 0.148 | inactive: -0.052 | inactive: 0.093 |  | inactive: -0.019 | inactive: -0.039 |  | inactive: -0.087 | inactive: -0.048
FYB1 isoform 3 (UniProt O15117) | inactive: -0.018 | inactive: -0.201 | inactive: 0.263 | inactive: 0.052 |  | inactive: -0.008 | inactive: 0.019 |  | inactive: -0.068 | inactive: -0.246
FOXJ3 (UniProt Q9UPW0) | inactive: 0.298 | inactive: -0.343 | inactive: 0.014 | inactive: -0.01 | inactive: 0.001 |  | inactive: -0.097 | inactive: 0.12 | inactive: 0.034 | 
GALC (UniProt P54803) | active: -0.275 | active: -0.959 | inactive: -0.009 | inactive: 0.042 |  | inactive: 0.096 | inactive: 0.01 |  | inactive: -0.011 | active: -0.403
GCSH (UniProt P23434) | inactive: 0.055 | inactive: 0.065 | inactive: -0.078 | inactive: 0.005 |  | inactive: 0.023 | inactive: 0.028 |  | inactive: 0.012 | active: -0.338
FNTB (UniProt P49356) | active: 0.948 | active: 0.707 | inactive: 0.01 | inactive: 0.044 |  | inactive: -0.212 | inactive: 0.02 |  | inactive: -0.055 | inactive: -0.088
GALNT11 (UniProt Q8NCW6) | inactive: 0.057 | active: -0.223 | inactive: 0.014 | inactive: -0.002 |  | inactive: 0.015 | inactive: -0.079 |  | inactive: 0.013 | inactive: -0.009
FUBP3 (UniProt Q96I24) | inactive: 0.061 | active: -0.251 | inactive: 0.045 | inactive: 0.021 |  | inactive: 0.064 | inactive: -0.028 |  | inactive: 0.02 | inactive: 0.059
FUNDC2 (UniProt Q9BWH2) | inactive: 0.014 | inactive: 0.143 | inactive: -0.062 | inactive: -0.015 | inactive: -0.013 | inactive: 0.027 | inactive: -0.004 | inactive: -0.009 | inactive: -0.064 | inactive: -0.015
GAPVD1 isoform 6 (UniProt Q14C86) | inactive: -0.12 | active: -0.585 | inactive: 0.034 | inactive: -0.015 |  | inactive: -0.016 | inactive: 0.038 |  | inactive: 0.083 | inactive: -0.197
GATA1 (UniProt P15976) | inactive: 0.134 | inactive: 0.076 | inactive: -0.036 | inactive: 0.152 |  | inactive: 0.04 | inactive: -0.084 |  | inactive: 0.046 | inactive: 0.119
GDPD1 (UniProt Q8N9F7) | inactive: 0.069 | inactive: 0.049 | inactive: -0.019 | inactive: 0.017 |  | inactive: -0.188 | inactive: 0.004 |  | inactive: -0.132 | inactive: 0.092
GDI1 (UniProt P31150) | inactive: 0.018 | inactive: 0.113 | inactive: 0.025 | inactive: 0.022 |  | inactive: -0.068 | inactive: -0.015 |  | inactive: -0.082 | inactive: 0.008
FUCA2 (UniProt Q9BTY2) | active: -1.11 | active: -1.04 | inactive: 0.001 | inactive: -0.024 |  | inactive: 0.003 | inactive: -0.019 |  | inactive: -0.033 | inactive: -0.029
FUCA1 (UniProt P04066) | active: -1.33 | active: -1.73 | inactive: -0.061 | inactive: -0.03 |  | inactive: -0.006 | inactive: -0.025 |  | inactive: -0.017 | inactive: -0.141
GALNT1 (UniProt Q10472) | inactive: -0.06 | active: -0.218 | inactive: -0.011 | inactive: -0.068 |  | inactive: -0.041 | inactive: -0.011 |  | inactive: -0.074 | inactive: 0.106
GABARAPL2 (UniProt P60520) | active: -0.29 | inactive: -0.182 | inactive: 0.041 | inactive: 0.027 |  | inactive: -0.049 | inactive: -0.017 |  | inactive: -0.07 | inactive: -0.099
GAGE12F (UniProt P0CL80) | inactive: 0.037 | inactive: 0.069 | inactive: -0.033 | inactive: 0.034 |  | inactive: -0.058 | inactive: -0.095 |  | inactive: -0.049 | inactive: -0.234
GEMIN2 (UniProt O14893) | inactive: -0.203 | inactive: -0.061 | inactive: -0.057 | inactive: 0.011 |  | inactive: 0.013 | inactive: 0.019 |  | inactive: 0.101 | inactive: 0.031
GGT7 (UniProt Q9UJ14) | inactive: 0.029 | inactive: -0.063 | inactive: -0.069 | inactive: 0.079 |  | inactive: -0.124 | inactive: 0.081 |  | inactive: 0.02 | inactive: 0.023

Retrieved one by one from the entries so far:
Target | log2 fold change [1] | log2 fold change [2] | log2 fold change [3] | log2 fold change [4] | log2 fold change [5] | log2 fold change [6] | log2 fold change [7] | log2 fold change [8] | log2 fold change [9] | log2 fold change [10]
GHITM (UniProt Q9H3K2) | inactive: 0.025 | inactive: 0.047 | inactive: -0.021 | inactive: -0.029 | inactive: 0.036 | inactive: -0.004 | inactive: 0.029 | inactive: -0.019 | inactive: 0.01 | inactive: -0.047
GAPVD1 isoform 6 (UniProt Q14C86) | inactive: -0.12 | active: -0.585 | inactive: 0.034 | inactive: -0.015 |  | inactive: -0.016 | inactive: 0.038 |  | inactive: 0.083 | inactive: -0.197
